Assay results published in publication PMC10918171.
These are yes or no findings as the source states them, for the method shown. In cells and extracts the contact can be indirect. Some results given as binding are weak or reduced against the parent protein; the word gives no strength. For some of these results: Sequences can lack the tags named with a protein.

The chains behind the UniProt entries cited, without tags or fusion partners.
UniProt Q9Y4G2: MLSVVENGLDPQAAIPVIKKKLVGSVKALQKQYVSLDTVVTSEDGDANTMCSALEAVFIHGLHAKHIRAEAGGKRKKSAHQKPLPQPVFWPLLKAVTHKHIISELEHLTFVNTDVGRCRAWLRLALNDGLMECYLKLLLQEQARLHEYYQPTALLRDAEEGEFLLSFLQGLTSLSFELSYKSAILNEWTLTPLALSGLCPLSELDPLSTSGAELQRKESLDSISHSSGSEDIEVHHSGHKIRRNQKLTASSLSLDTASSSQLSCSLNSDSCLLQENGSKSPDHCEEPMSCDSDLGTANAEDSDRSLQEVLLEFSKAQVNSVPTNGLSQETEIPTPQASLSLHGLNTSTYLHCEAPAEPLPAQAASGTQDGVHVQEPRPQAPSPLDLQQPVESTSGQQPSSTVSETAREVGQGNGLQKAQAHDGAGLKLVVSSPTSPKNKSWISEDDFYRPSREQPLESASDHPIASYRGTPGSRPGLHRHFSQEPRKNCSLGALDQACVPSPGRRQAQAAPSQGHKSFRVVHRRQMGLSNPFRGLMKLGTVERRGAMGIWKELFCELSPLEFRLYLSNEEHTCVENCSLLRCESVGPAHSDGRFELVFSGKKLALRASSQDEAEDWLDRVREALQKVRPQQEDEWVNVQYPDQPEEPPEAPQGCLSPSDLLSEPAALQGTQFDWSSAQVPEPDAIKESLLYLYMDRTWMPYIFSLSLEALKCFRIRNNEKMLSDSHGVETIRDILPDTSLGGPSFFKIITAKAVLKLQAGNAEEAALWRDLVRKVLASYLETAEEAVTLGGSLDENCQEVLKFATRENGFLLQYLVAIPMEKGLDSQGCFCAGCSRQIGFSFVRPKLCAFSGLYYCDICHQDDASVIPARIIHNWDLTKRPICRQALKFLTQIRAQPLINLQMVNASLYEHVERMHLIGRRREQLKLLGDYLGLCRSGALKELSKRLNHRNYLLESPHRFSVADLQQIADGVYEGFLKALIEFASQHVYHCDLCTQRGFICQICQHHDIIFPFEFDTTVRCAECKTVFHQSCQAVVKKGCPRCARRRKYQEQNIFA

T1: HA-Vps39 (UniProt Q96JC1)
T1 sequence: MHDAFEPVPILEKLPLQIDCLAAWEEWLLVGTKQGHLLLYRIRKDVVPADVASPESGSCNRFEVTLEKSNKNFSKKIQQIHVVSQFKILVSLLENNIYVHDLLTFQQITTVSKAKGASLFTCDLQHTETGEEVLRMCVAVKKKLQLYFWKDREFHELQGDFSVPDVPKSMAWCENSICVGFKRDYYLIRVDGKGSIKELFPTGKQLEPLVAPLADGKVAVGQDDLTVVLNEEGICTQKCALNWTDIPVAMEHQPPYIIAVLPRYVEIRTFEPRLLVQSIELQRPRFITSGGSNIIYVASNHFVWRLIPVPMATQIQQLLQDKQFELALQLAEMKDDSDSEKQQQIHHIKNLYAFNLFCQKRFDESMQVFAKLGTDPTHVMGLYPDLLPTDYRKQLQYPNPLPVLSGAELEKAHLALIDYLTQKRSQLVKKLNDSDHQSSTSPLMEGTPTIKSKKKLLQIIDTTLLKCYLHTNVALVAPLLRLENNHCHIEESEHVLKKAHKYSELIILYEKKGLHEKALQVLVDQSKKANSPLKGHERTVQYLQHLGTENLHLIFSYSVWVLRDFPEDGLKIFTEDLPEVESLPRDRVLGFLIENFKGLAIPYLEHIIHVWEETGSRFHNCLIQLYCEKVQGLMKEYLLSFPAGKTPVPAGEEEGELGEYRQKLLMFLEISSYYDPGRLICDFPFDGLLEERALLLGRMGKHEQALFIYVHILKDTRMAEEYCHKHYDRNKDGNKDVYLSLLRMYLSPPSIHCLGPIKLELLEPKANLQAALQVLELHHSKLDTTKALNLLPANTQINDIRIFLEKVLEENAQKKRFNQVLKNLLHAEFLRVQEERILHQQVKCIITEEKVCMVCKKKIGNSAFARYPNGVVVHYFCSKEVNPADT


Columns and labels:
Assay in all cases: co-IP
FLAG-PLEKHM1, Q9Y4G2 = details: remark: other sources report otherwise
FLAG-PLEKHM1 = FLAG-PLEKHM1 (UniProt Q9Y4G2)
HA-Vps39 = target: T1, HA-Vps39

binding (FLAG-PLEKHM1) | Binder | further results
 | Vps41 (HOPS subunit), in cell lysate, P49754 1-854 (protein) MAEAEEQETGSLEESTDESEEEESEEEPKLKYERLSNGVTEILQKDAASCMTVHDKFLALGTHYGKVYLLDVQGNITQKFDVSPVKINQISLDESGEHMGVCSEDGKVQVFGLYSGEEFHETFDCPIKIIAVHPHFVRSSCKQFVTGGKKLLLFERSWMNRWKSAVLHEGEGNIRSVKWRGHLIAWANNMGVKIFDIISKQRITNVPRDDISLRPDMYPCSLCWKDNVTLIIGWGTSVKVCSVKERHASEMRDLPSRYVEIVSQFETEFYISGLAPLCDQLVVLSYVKEISEKTEREYCARPRLDIIQPLSETCEEISSDALTVRGFQENECRDYHLEYSEGESLFYIVSPRDVVVAKERDQDDHIDWLLEKKKYEEALMAAEISQKNIKRHKILDIGLAYINHLVERGDYDIAARKCQKILGKNAALWEYEVYKFKEIGQLKAISPYLPRGDPVLKPLIYEMILHEFLESDYEGFATLIREWPGDLYNNSVIVQAVRDHLKKDSQNKTLLKTLAELYTYDKNYGNALEIYLTLRHKDVFQLIHKHNLFSSIKDKIVLLMDFDSEKAVDMLLDNEDKISIKKVVEELEDRPELQHVYLHKLFKRDHHKGQRYHEKQISLYAEYDRPNLLPFLRDSTHCPLEKALEICQQRNFVEETVYLLSRMGNSRSALKMIMEELHDVDKAIEFAKEQDDGELWEDLILYSIDKPPFITGLLNNIGTHVDPILLIHRIKEGMEIPNLRDSLVKILQDYNLQILLREGCKKILVADSLSLLKKMHRTQMKGVLVDEENICESCLSPILPSDAAKPFSVVVFHCRHMFHKECLPMPSMNSAAQFCNICSAKNRGPGSAILEMKK | binding (FLAG-PLEKHM1, Q9Y4G2): binds
binds | Vps33a (HOPS subunit), in cell lysate (protein, UniProt Q96AX1 1-596) MAAHLSYGRVNLNVLREAVRRELREFLDKCAGSKAIVWDEYLTGPFGLIAQYSLLKEHEVEKMFTLKGNRLPAADVKNIIFFVRPRLELMDIIAENVLSEDRRGPTRDFHILFVPRRSLLCEQRLKDLGVLGSFIHREEYSLDLIPFDGDLLSMESEGAFKECYLEGDQTSLYHAAKGLMTLQALYGTIPQIFGKGECARQVANMMIRMKREFTGSQNSIFPVFDNLLLLDRNVDLLTPLATQLTYEGLIDEIYGIQNSYVKLPPEKFAPKKQGDGGKDLPTEAKKLQLNSAEELYAEIRDKNFNAVGSVLSKKAKIISAAFEERHNAKTVGEIKQFVSQLPHMQAARGSLANHTSIAELIKDVTTSEDFFDKLTVEQEFMSGIDTDKVNNYIEDCIAQKHSLIKVLRLVCLQSVCNSGLKQKVLDYYKREILQTYGYEHILTLHNLEKAGLLKPQTGGRNNYPTIRKTLRLWMDDVNEQNPTDISYVYSGYAPLSVRLAQLLSRPGWRSIEEVLRILPGPHFEERQPLPTGLQKKRQPGENRVTLIFFLGGVTFAEIAALRFLSQLEDGGTEYVIATTKLMNGTSWIEALMEKPF | 
binds | Vps18 (HOPS subunit), in cell lysate (protein, UniProt Q9P253 1-973) MASILDEYENSLSRSAVLQPGCPSVGIPHSGYVNAQLEKEVPIFTKQRIDFTPSERITSLVVSSNQLCMSLGKDTLLRIDLGKANEPNHVELGRKDDAKVHKMFLDHTGSHLLIALSSTEVLYVNRNGQKVRPLARWKGQLVESVGWNKALGTESSTGPILVGTAQGHIFEAELSASEGGLFGPAPDLYFRPLYVLNEEGGPAPVCSLEAERGPDGRSFVIATTRQRLFQFIGRAAEGAEAQGFSGLFAAYTDHPPPFREFPSNLGYSELAFYTPKLRSAPRAFAWMMGDGVLYGALDCGRPDSLLSEERVWEYPEGVGPGASPPLAIVLTQFHFLLLLADRVEAVCTLTGQVVLRDHFLEKFGPLKHMVKDSSTGQLWAYTERAVFRYHVQREARDVWRTYLDMNRFDLAKEYCRERPDCLDTVLAREADFCFRQRRYLESARCYALTQSYFEEIALKFLEARQEEALAEFLQRKLASLKPAERTQATLLTTWLTELYLSRLGALQGDPEALTLYRETKECFRTFLSSPRHKEWLFASRASIHELLASHGDTEHMVYFAVIMQDYERVVAYHCQHEAYEEALAVLARHRDPQLFYKFSPILIRHIPRQLVDAWIEMGSRLDARQLIPALVNYSQGGEVQQVSQAIRYMEFCVNVLGETEQAIHNYLLSLYARGRPDSLLAYLEQAGASPHRVHYDLKYALRLCAEHGHHRACVHVYKVLELYEEAVDLALQVDVDLAKQCADLPEEDEELRKKLWLKIARHVVQEEEDVQTAMACLASCPLLKIEDVLPFFPDFVTIDHFKEAICSSLKAYNHHIQELQREMEEATASAQRIRRDLQELRGRYGTVEPQDKCATCDFPLLNRPFYLFLCGHMFHADCLLQAVRPGLPAYKQARLEELQRKLGAAPPPAKGSARAKEAEGGAATAGPSREQLKADLDELVAAECVYCGELMIRSIDRPFIDPQRYEEEQLSWL | 
 | Vps11 (HOPS subunit), in cell lysate (protein, UniProt Q9H270 1-941) MAAYLQWRRFVFFDKELVKEPLSNDGAAPGATPASGSAASKFLCLPPGITVCDSGRGSLVFGDMEGQIWFLPRSLQLTGFQAYKLRVTHLYQLKQHNILASVGEDEEGINPLVKIWNLEKRDGGNPLCTRIFPAIPGTEPTVVSCLTVHENLNFMAIGFTDGSVTLNKGDITRDRHSKTQILHKGNYPVTGLAFRQAGKTTHLFVVTTENVQSYIVSGKDYPRVELDTHGCGLRCSALSDPSQDLQFIVAGDECVYLYQPDERGPCFAFEGHKLIAHWFRGYLIIVSRDRKVSPKSEFTSRDSQSSDKQILNIYDLCNKFIAYSTVFEDVVDVLAEWGSLYVLTRDGRVHALQEKDTQTKLEMLFKKNLFEMAINLAKSQHLDSDGLAQIFMQYGDHLYSKGNHDGAVQQYIRTIGKLEPSYVIRKFLDAQRIHNLTAYLQTLHRQSLANADHTTLLLNCYTKLKDSSKLEEFIKKKSESEVHFDVETAIKVLRQAGYYSHALYLAENHAHHEWYLKIQLEDIKNYQEALRYIGKLPFEQAESNMKRYGKILMHHIPEQTTQLLKGLCTDYRPSLEGRSDREAPGCRANSEEFIPIFANNPRELKAFLEHMSEVQPDSPQGIYDTLLELRLQNWAHEKDPQVKEKLHAEAISLLKSGRFCDVFDKALVLCQMHDFQDGVLYLYEQGKLFQQIMHYHMQHEQYRQVISVCERHGEQDPSLWEQALSYFARKEEDCKEYVAAVLKHIENKNLMPPLLVVQTLAHNSTATLSVIRDYLVQKLQKQSQQIAQDELRVRRYREETTRIRQEIQELKASPKIFQKTKCSICNSALELPSVHFLCGHSFHQHCFESYSESDADCPTCLPENRKVMDMIRAQEQKRDLHDQFQHQLKCSNDSFSVIADYFGRGVFNKLTLLTDPPTARLTSSLEAGLQRDLLMHSRRGT | binding (HA-Vps39): binds
